Results on three substances are retold here after article PMC7935953, “Insights on autophagosome–lysosome tethering from structural and biochemical characterization of human autophagy factor EPG5” (Communications Biology, 2021).

By UniProt entry, the sequences of proteins in these tests, tags left out. Where a name states a change or a piece, a line headed by the entry shows the natural chain unless it says otherwise. Residues count along the entry.
UniProt Q9BXW4, residues 1-126: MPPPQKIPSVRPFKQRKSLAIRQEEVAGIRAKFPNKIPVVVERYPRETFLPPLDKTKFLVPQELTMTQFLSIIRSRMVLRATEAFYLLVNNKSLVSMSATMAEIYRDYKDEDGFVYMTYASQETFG
UniProt Q9HCE0: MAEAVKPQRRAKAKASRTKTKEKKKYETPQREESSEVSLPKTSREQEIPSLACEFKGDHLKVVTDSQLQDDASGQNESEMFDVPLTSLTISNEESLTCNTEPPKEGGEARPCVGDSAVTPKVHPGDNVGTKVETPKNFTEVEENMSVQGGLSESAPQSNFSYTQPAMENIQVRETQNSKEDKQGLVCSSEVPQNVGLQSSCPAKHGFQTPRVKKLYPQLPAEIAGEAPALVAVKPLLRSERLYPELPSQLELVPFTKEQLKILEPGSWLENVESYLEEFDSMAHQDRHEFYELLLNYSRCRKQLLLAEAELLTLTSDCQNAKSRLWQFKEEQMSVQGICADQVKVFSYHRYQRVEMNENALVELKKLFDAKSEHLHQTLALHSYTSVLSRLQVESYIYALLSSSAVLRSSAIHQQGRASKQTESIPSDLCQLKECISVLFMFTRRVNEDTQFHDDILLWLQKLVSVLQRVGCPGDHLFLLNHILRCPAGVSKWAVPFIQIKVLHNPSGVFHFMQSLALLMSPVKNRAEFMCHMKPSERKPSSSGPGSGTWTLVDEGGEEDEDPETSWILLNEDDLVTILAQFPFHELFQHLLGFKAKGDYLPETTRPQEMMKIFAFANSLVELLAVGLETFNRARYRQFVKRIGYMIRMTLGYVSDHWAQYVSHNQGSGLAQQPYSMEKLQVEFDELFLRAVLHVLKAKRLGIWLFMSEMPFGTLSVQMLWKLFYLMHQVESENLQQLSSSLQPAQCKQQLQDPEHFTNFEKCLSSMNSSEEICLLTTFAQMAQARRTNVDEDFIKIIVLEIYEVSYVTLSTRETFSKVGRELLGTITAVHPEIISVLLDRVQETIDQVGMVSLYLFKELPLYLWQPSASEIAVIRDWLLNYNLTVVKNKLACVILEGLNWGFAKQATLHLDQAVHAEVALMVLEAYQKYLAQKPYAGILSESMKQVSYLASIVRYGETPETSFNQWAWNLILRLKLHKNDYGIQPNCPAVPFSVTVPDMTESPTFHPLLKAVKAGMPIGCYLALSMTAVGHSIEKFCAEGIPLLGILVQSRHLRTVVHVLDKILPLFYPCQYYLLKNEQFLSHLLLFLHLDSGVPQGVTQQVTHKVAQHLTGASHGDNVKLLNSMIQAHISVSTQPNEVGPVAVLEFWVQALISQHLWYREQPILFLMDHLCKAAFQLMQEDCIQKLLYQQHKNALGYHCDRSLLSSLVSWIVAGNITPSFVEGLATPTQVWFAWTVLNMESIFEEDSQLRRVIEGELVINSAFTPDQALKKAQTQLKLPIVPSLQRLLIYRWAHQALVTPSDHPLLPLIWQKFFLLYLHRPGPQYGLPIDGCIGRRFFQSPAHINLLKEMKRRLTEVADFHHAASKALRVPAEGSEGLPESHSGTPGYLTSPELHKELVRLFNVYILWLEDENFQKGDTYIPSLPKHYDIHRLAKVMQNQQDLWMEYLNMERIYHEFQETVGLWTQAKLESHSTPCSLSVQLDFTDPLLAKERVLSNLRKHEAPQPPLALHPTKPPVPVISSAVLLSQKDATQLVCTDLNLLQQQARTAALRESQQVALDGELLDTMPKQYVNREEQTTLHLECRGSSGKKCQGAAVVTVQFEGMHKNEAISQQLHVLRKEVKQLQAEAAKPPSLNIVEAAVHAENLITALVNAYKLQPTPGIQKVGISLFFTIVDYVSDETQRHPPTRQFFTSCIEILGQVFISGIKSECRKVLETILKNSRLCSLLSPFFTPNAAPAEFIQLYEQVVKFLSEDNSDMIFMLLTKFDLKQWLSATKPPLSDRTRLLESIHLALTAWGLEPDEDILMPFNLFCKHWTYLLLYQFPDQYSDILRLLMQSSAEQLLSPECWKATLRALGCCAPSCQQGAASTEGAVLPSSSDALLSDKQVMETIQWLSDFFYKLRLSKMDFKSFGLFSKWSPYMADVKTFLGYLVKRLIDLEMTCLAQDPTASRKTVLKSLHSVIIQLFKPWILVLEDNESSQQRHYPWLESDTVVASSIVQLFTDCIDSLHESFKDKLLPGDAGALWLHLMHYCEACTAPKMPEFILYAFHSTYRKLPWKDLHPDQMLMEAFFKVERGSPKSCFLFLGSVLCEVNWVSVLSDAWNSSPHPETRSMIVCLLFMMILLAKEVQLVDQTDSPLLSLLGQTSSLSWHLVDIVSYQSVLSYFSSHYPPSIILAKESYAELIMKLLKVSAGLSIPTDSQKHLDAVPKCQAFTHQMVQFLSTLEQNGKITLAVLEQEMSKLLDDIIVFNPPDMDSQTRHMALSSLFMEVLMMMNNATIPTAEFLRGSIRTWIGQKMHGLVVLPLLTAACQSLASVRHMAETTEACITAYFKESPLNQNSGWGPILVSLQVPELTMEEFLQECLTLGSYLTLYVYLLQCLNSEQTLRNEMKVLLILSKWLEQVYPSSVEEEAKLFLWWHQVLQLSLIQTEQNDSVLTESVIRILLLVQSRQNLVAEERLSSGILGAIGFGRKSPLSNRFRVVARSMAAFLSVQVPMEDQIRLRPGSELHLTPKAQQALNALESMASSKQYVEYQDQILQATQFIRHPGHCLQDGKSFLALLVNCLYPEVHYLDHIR
UniProt O95166: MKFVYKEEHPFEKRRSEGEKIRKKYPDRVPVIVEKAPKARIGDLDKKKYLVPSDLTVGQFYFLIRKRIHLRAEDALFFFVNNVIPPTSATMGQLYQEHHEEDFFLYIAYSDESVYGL

Results are given in words; binding and its absence hold for the method and conditions named. Some binding calls cover weakened binding; strength is not graded here.

The target in test [1] is GST-LC3C (human) (UniProt Q9BXW4). Nature of the test: pull-down; GST pull-down: purified GST-LC3A/B/C or GST-GABARAP/L1/L2 bait (200–240 µg) on glutathione resin, purified His-FLAG-hEPG5 or mutant (25–30 µg) as prey; 50 mM Tris pH 8.0, 150 mM NaCl, 5% glycerol, 0.01% Tween20, 0.5 mM DTT, 4 °C; anti-FLAG fluorescence western blot; both purified. (A western blot detects proteins with antibodies after separation by electrophoresis.)

Test [2] addresses hEPG5^Q336R (human) (UniProt Q9HCE0). Nature of the test: negative stain electron microscopy; purified hEPG5 from the glycerol gradient peak fraction, uranyl formate stain, raw images and 2D class averages; both purified.
For test [3], the target named is GST-GABARAP (human) (UniProt O95166). The experiment in a line: pull-down; GST pull-down: purified GST-LC3A/B/C or GST-GABARAP/L1/L2 bait (200–240 µg) on glutathione resin, purified His-FLAG-hEPG5 or mutant (25–30 µg) as prey; 50 mM Tris pH 8.0, 150 mM NaCl, 5% glycerol, 0.01% Tween20, 0.5 mM DTT, 4 °C; anti-FLAG fluorescence western blot; both purified.

On to “His-FLAG-hEPG5 (human EPG5, full length, wild type) (from UniProt Q9HCE0 1-2579)”, for which the binding result in test [1] is on record as “binds”.

Consider “hEPG5^Q336R (from UniProt Q9HCE0 1-2579)”, for which the binding entry in test [1] is on record as “binds”; in test [2], “no binding”.

As to “hEPG5^W550A/W567A (from UniProt Q9HCE0 1-2579)”, the binding result in test [3] is on record as “no binding (tested: 25–30 µg hEPG5 on 200–240 µg bait)”.
